From the supplement of paper PMC12282887
Values are raw readings; no control value is given beside them.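 The top concentration was set near the MIC for antimicrobials, at 500 µM for most other compounds, and up to 1 mM for known inducer-like compounds. Deletion strains started from a tenfold smaller inoculum, and wells growing below 10% of the overall median were treated as non-growing.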

Test system: Escherichia coli BW25113
Assay: growth (OD600 area under curve, 8 h) (OD600 x h); higher = more growth
Procedure: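 E. coli BW25113 reporter strains (wild type, ΔmarA, ΔsoxS, Δrob, each carrying one of 8 lux reporter plasmids) were grown in 40 µl LB in 384-well plates at 37°C, 800 rpm, with each compound at 4 two-fold concentrations, in biological duplicates. Growth is the baseline-corrected OD600 area under the curve over 8 h (0-8 h WT, 1-9 h deletion strains).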

CC[C@H]1OC(=O)[C@H](C)[C@@H](O[C@H]2C[C@@](C)(OC)[C@@H](O)[C@H](C)O2)[C@H](C)[C@@H](O[C@@H]2O[C@H](C)C[C@H](N(C)C)[C@H]2O)[C@](C)(O)C[C@@H](C)CN(C)[C@H](C)[C@@H](O)[C@]1(C)O [Azithromycin]
growth
Conditions | reporter plasmid: EVC | reporter plasmid: acrABp | reporter plasmid: marRABp | reporter plasmid: micFp | reporter plasmid: ompFp | reporter plasmid: robp | reporter plasmid: soxSp | reporter plasmid: tolCp
0.28 µg/ml, genetic background: wild type | 3.126 | 3.04 | 3.05 | 2.77 | 2.98 | 3.11 | 2.862 | 2.7
0.28 µg/ml, genetic background: ΔmarA | 2.46 | 3.46 | 3.26 | 3.08 | 3.27 | 3.94 | 3.24 | 2.61
0.28 µg/ml, genetic background: Δrob | 2.88 | 3.133 | 3.32 | 2.46 | 2.47 | 2.81 | 2.85 | 2.838
0.28 µg/ml, genetic background: ΔsoxS | 2.98 | 3.24 | 3.21 | 2.7 | 3.1 | 3.08 | 2.9 | 2.91
0.56 µg/ml, genetic background: wild type | 2.42 | 2.54 | 2.49 | 2.04 | 2.12 | 2.36 | 2.41 | 2.13
0.56 µg/ml, genetic background: ΔmarA | 1.87 | 2.64 | 2.39 | 2.09 | 2.37 | 3.08 | 2.82 | 1.77
0.56 µg/ml, genetic background: Δrob | 2.01 | 2.13 | 2.35 | 1.47 | 1.42 | 1.81 | 2.38 | 1.9
0.56 µg/ml, genetic background: ΔsoxS | 2.05 | 2.1 | 2.08 | 1.91 | 2.31 | 2.03 | 2.08 | 1.81
1.1 µg/ml, genetic background: wild type | 1.83 | 1.69 | 1.77 | 1.27 | 1.43 | 1.56 | 1.85 | 1.38
1.1 µg/ml, genetic background: ΔmarA | 0.951 | 1.05 | 0.933 | 1.18 | 0.983 | 1.9 | 2.37 | 1.01
1.1 µg/ml, genetic background: Δrob | 1.35 | 1.48 | 1.46 | 0.963 | 0.647 | 0.873 | 1.75 | 1.32
1.1 µg/ml, genetic background: ΔsoxS | 1.47 | 1.48 | 1.49 | 1.21 | 1.45 | 1.46 | 1.33 | 1.14
2.2 µg/ml, genetic background: wild type | 0.796 | 0.336 | 0.203 | 0.426 | 0.139 | 0.358 | 0.71 | 0.556
2.2 µg/ml, genetic background: ΔmarA | 0.182 | 0.0851 | 0.034 | 0.14 | 0.0272 | 0.259 | 0.454 | 0.134
2.2 µg/ml, genetic background: Δrob | 0.262 | 0.158 | 0.0339 | 0.0856 | 0.0557 | 0.0746 | 0.339 | 0.321
2.2 µg/ml, genetic background: ΔsoxS | 0.2233 | 0.191 | 0.0616 | 0.0889 | 0.115 | 0.0341 | 0.101 | 0.251
